Reference: doi:10.1101/2025.10.24.684405

Protein sequences, listed by entry. Tags and fused reporters are not part of them. Lines headed by an entry give the natural chain unless they say otherwise; changes in a name come on top.
UniProt Q2VPK5: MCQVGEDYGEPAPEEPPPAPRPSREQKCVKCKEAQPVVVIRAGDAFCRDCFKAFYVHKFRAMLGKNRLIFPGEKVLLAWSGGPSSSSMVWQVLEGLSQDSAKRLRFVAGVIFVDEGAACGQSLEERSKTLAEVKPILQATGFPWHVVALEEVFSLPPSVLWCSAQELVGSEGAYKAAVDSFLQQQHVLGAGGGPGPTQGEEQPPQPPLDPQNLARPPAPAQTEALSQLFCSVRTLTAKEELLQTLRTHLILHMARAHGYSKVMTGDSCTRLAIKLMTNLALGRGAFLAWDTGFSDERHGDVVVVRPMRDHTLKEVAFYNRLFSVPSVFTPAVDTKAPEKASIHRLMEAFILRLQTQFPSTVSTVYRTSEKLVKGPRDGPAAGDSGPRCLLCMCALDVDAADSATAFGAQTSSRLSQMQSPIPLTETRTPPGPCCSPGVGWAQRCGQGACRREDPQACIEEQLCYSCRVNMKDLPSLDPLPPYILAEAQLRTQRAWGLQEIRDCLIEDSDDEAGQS

Molecular target: T1, human CTU1 (cytosolic thiouridylase 1), 6xHis and Twin-Strep tagged (human) (UniProt Q7Z7A3)
T1 sequence: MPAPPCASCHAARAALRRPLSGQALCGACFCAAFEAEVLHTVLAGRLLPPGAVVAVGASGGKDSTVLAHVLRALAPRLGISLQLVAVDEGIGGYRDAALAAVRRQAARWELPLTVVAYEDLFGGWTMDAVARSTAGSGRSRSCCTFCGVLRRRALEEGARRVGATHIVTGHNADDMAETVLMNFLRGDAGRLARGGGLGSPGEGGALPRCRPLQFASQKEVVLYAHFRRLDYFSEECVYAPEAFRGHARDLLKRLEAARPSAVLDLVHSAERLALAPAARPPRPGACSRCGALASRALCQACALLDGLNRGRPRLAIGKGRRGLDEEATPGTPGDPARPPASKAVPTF
Experiment: SEC

In the case of “human CTU2 K65A/R67A double mutant, 6xHis tagged (from UniProt Q2VPK5)”, the binding is reported as “binds”.

Results are given in words; binding and its absence hold for the method and conditions named. A result given as binding can be weak or reduced; the word gives no strength. Tags and fused reporters may be left off the sequences shown.
